Reference: publication doi:10.1101/2022.09.26.509591
Results are given in words; binding and its absence hold for the method and conditions named. Binding seen in cells or lysates may run through a third protein. These calls come from enrichment with a bait or labelling near it, and not all partners need be listed. For some assays here: Where a sequence is shown, tags or fusion partners need not be part of it.

By UniProt entry, the sequences of proteins in these tests, tags left out.
UniProt Q9Y2X7: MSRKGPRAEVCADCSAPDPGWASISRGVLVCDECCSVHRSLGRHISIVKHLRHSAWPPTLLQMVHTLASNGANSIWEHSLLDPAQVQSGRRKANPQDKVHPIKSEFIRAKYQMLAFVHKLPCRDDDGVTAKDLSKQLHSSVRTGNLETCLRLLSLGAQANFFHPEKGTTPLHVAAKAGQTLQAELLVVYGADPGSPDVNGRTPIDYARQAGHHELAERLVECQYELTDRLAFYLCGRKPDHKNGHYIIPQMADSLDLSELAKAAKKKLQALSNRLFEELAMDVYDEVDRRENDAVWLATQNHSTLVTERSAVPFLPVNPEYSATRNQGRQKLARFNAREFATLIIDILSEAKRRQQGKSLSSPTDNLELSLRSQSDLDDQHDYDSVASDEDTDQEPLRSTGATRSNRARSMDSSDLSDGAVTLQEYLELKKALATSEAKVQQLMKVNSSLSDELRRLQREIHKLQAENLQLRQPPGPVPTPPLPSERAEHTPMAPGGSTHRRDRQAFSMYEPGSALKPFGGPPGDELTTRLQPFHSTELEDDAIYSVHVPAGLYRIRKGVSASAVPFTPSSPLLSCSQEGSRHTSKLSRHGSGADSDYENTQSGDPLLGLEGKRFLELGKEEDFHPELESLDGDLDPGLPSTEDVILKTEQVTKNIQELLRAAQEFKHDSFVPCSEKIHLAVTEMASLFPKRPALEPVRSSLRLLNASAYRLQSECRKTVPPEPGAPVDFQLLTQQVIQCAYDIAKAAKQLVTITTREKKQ

What was measured:
[1] = biological target: KLHL4ΔCUL3 (FLAG-tagged) (human) (UniProt Q9C0H6); assay: affinity purification with mass spectrometry
[2] = biological target: T1, KLHL4^FLAG (wild type) (human) (UniProt Q9C0H6); assay: affinity purification with mass spectrometry
T1 sequence: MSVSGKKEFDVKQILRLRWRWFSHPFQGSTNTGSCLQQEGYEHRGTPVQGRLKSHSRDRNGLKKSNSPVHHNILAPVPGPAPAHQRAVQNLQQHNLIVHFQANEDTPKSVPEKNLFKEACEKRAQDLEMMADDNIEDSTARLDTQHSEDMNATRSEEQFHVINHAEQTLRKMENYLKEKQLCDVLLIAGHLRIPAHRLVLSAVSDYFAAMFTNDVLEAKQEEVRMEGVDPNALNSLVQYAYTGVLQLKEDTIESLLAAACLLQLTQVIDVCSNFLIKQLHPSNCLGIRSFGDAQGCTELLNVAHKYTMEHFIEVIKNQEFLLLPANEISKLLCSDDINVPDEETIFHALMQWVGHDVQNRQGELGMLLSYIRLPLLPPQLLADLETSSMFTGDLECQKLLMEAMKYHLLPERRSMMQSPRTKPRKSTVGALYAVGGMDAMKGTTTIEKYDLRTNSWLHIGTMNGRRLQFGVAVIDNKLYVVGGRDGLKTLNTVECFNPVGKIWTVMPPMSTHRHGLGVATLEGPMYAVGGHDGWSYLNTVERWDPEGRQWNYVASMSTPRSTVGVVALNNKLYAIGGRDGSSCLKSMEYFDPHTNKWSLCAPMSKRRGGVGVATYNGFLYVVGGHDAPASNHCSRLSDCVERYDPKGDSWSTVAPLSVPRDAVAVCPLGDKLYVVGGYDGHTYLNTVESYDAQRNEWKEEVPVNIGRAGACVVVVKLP

Substance: GIT1 (endogenous) (from UniProt Q9Y2X7 1-761)
- binding [1]: binds
- binding [2]: binds
